Values from PubChem BioAssay AID504793 (Drosophila RNAi Screening Center, 2011).
The screen tested about 23,000 reagents; below is a random part of those that have a named target and a result. Of all reagents, 62 (0.27%) were called active. 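Calls come from follow-up tests whose scores are not deposited, so confirmed genes may have low counts here; counts are not normalised per plate.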 Raw values are not corrected between plates. A plus sign joins genes that one reagent is predicted to hit.

Assay: 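Whole-genome screen for parts of the DNA damage checkpoint at G2/M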 (primary screen)
System: Drosophila S2R+ cells
Reagent: long dsRNA against Drosophila genes, about 0.25 µg dsRNA per well
Time to read-out: 4 days of dsRNA, then 4 hours of drug before read-out
Challenge: doxorubicin 0.5 µM for 4 hours to cause double-strand breaks, in cells also given a low, harmless dose of dsRNA against nbs to sensitise the assay
Detection: 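Mitotic index as the number of phospho-histone H3-positive cells in each well following doxorubicin, given as raw counts without normalisation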
Reading the numbers: mitotic cells: higher = more cells in mitosis, weaker G2 arrest
Rule for the call: 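a call needs confirmation in secondary tests, with other dsRNAs and a check of mitotic timing without damage, not just a high primary count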
Meaning of the calls: active = confirmed in follow-up tests; inactive = not confirmed

no.	gene knocked down	DRSC id	mitotic cells, replicate 1	mitotic cells, replicate 2	Outcome
1	CG30089 (GeneID 36736)	DRSC06126	10		inactive
2	CG30089 (GeneID 36736)	DRSC06267	1		inactive
3	CG30089 (GeneID 36736)	DRSC06268	11		inactive
4	sowi (GeneID 40809)	DRSC12558	5		inactive
5	sowi (GeneID 40809)	DRSC24116	8		inactive
6	Tsp29Fa (GeneID 34211)	DRSC03232	6		inactive
7	Tsp29Fa (GeneID 34211)	DRSC28522	5		inactive
8	CG14985 (GeneID 38470)	DRSC08443	8		inactive
9	l(3)73Ah + CG32163	DRSC21888	14		inactive
10	Ilp8 (GeneID 39909)	DRSC10076	4		inactive
11	CG31265 (GeneID 42068)	DRSC15745	5		inactive
12	CG31265 (GeneID 42068)	DRSC28592	6		inactive
13	nvd (GeneID 5740633)	DRSC22139	5		inactive
14	nvd (GeneID 5740633)	DRSC26328	5		inactive
15	CG34166 (GeneID 5740596)	DRSC02482	3		inactive
16	CG34166 (GeneID 5740596)	DRSC27934	6		inactive
17	CG14079 (GeneID 40086)	DRSC10083	6		inactive
18	Uch-L5 (GeneID 39102)	DRSC11314	6		inactive
19	Uch-L5 (GeneID 39102)	DRSC27736	1		inactive
20	T3dh + pgc	DRSC04659	9		inactive
21	CG9570 (GeneID 33009)	DRSC20687	4		inactive
22	mts (GeneID 45959)	DRSC03574	52		inactive
23	btv (GeneID 35073)	DRSC01615	8		inactive
24	btv (GeneID 35073)	DRSC02449	1		inactive
25	RanBP3 (GeneID 42804)	DRSC23153	15		inactive
26	RanBP3 (GeneID 42804)	DRSC27585	2		inactive
27	p38c (GeneID 2768679)	DRSC22939	4		inactive
28	CG12104 (GeneID 38187)	DRSC08254	11		inactive
29	CG12104 (GeneID 38187)	DRSC26773	7		inactive
30	CG15764 (GeneID 31516)	DRSC18070	10		inactive
31	CG15764 (GeneID 31516)	DRSC25755	3		inactive
32	CG12723 (GeneID 32271)	DRSC19499	4		inactive
33	CG12723 (GeneID 32271)	DRSC26290	13		inactive
34	eEF1delta (GeneID 34363)	DRSC02790	1		inactive
35	eEF1delta (GeneID 34363)	DRSC26084	5		inactive
36	CG12546 (GeneID 40483)	DRSC11676			inactive
37	Dna2 (GeneID 31934)	DRSC18254	12		inactive
38	mof (GeneID 31518)	DRSC18795	16		inactive
39	mof (GeneID 31518)	DRSC24125	7		inactive
40	CG34375 (GeneID 42715)	DRSC14684	5		inactive
41	CG34375 (GeneID 42715)	DRSC14685	6		inactive
42	CG34375 (GeneID 42715)	DRSC24412	5		inactive
43	Nep6 (GeneID 32234)	DRSC19877	6		inactive
44	CG14277 (GeneID 34129)	DRSC02380	4		inactive
45	Lcp65Af (GeneID 45017)	DRSC11213	5		inactive
46	Lcp65Af (GeneID 45017)	DRSC25142	5		inactive
47	Nop56 (GeneID 42633)	DRSC14699	14		inactive
48	CG17637 (GeneID 40275)	DRSC11740	4		inactive
49	mRpL27 (GeneID 318825)	DRSC22568	14		inactive
50	Acsx4 (GeneID 42355)	DRSC14311	17		inactive
51	Acsx4 (GeneID 42355)	DRSC27646	12		inactive
52	CG15710 (GeneID 36832)	DRSC06581	6		inactive
53	GstD11 (GeneID 41512)	DRSC15251	7		inactive
54	GstD11 (GeneID 41512)	DRSC26490	7		inactive
55	Psn (GeneID 40260)	DRSC11743	7		inactive
56	CG9825 (GeneID 37624)	DRSC04569	3		inactive
57	CG9825 (GeneID 37624)	DRSC25634	7		inactive
58	CG11069 (GeneID 42976)	DRSC14289	15		inactive
59	CG30046 (GeneID 36334)	DRSC06691	4		inactive
60	CG42340 (GeneID 7354472)	DRSC17458	2	8	inactive
61	CG42340 (GeneID 7354472)	DRSC17841	4		inactive
62	CG42340 (GeneID 7354472)	DRSC18305	8		inactive
63	CG42340 (GeneID 7354472)	DRSC21619	11		inactive
64	CG42340 (GeneID 7354472)	DRSC23657	2		inactive
65	CG2767 (GeneID 40946)	DRSC15451	3		inactive
66	CG2767 (GeneID 40946)	DRSC26830	7		inactive
67	CG6125 (GeneID 41882)	DRSC15970	3		inactive
68	CG14194 (GeneID 32908)	DRSC19549	5		inactive
69	Or46a (GeneID 2768728)	DRSC07489	7		inactive
70	Or46a (GeneID 2768728)	DRSC07490	4		inactive
71	Or46a (GeneID 2768728)	DRSC21590	11		inactive
72	Or46a (GeneID 2768728)	DRSC29654	11		inactive
73	Plzf (GeneID 34622)	DRSC02994	7		inactive
74	CG30278 (GeneID 246523)	DRSC22787	13		inactive
75	CG2652 (GeneID 31250)	DRSC18501	4		inactive
76	CG2652 (GeneID 31250)	DRSC22576	11		inactive
77	CG2652 (GeneID 31250)	DRSC27496	7		inactive
78	sinah (GeneID 39885)	DRSC09910	5		inactive
79	sinah (GeneID 39885)	DRSC22181	11		inactive
80	CG5504 (GeneID 48844)	DRSC04701	6		inactive
81	Scgbeta (GeneID 41525)	DRSC15854	12		inactive
82	CG43795 (GeneID 5740629)	DRSC04192	4		inactive
83	CG43795 (GeneID 5740629)	DRSC04193	6		inactive
84	CG43795 (GeneID 5740629)	DRSC04194	5		inactive
85	CG43795 (GeneID 5740629)	DRSC04309	12		inactive
86	CG43795 (GeneID 5740629)	DRSC04310	8		inactive
87	CG43795 (GeneID 5740629)	DRSC22826	25		inactive
88	CG43795 (GeneID 5740629)	DRSC26752	5		inactive
89	CG31862 (GeneID 318989)	DRSC01245	11		inactive
90	vig2 (GeneID 43016)	DRSC14402	4		inactive
91	vig2 (GeneID 43016)	DRSC30012	6		inactive
92	Mcm5 (GeneID 41296)	DRSC16735	6		inactive
93	Mcm5 (GeneID 41296)	DRSC29514	4		inactive
94	caup (GeneID 39440)	DRSC23050	9		inactive
95	CG14088 (GeneID 40098)	DRSC10092	7		inactive
96	GC2 (GeneID 41449)	DRSC14476	2		inactive
97	GC2 (GeneID 41449)	DRSC27370	9		inactive
98	Khc (GeneID 36810)	DRSC07448	6		inactive
99	Khc (GeneID 36810)	DRSC24335	6		inactive
100	CG12849 (GeneID 37971)	DRSC04129	7		inactive
101	CG42613 (GeneID 42269)	DRSC13332	8		inactive
102	CG42613 (GeneID 42269)	DRSC14769	11		inactive
103	CG42613 (GeneID 42269)	DRSC15802	11		inactive
104	CG42613 (GeneID 42269)	DRSC25089	10		inactive
105	Su(var)3-7 (GeneID 41627)	DRSC16872	10		inactive
106	Dscam1 (GeneID 35652)	DRSC07407	4		inactive
107	Dscam1 (GeneID 35652)	DRSC21562	9		inactive
108	Dscam1 (GeneID 35652)	DRSC22383	10		inactive
109	Dscam1 (GeneID 35652)	DRSC29101	5		inactive
110	Cpr47Ef (GeneID 36194)	DRSC06336	8		inactive
111	Cpr47Ef (GeneID 36194)	DRSC22450	36		inactive
112	Cpr47Ef (GeneID 36194)	DRSC25090	5		inactive
113	Cpr47Ef (GeneID 36194)	DRSC25665	10		inactive

Limited to “mitotic cells, replicate 1”, for 5 of the entries above:
Ilp8 (GeneID 39909) [DRSC10076] = 4
CG31265 (GeneID 42068) [DRSC15745] = 5
CG31265 (GeneID 42068) [DRSC28592] = 6
nvd (GeneID 5740633) [DRSC22139] = 5
nvd (GeneID 5740633) [DRSC26328] = 5
